“And” between values parts separate entries of the source, which are not always exact repeats. Equal values may be shown once. Where a name gives a salt, the structure may show the parent alone. The list shows a part of the results. Repeats in this data set agree poorly, so a single value says little.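 HEK293T cells were given each compound shortly before transfection with a reporter in which red mCherry is followed by the SARS-CoV-2 frameshift element and then GFP in the −1 frame, so GFP appears only after frameshifting.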
The molecules below were run on HEK293T (assay: percent viability (nuclei count) relative to control; higher = more viable cells). Settings: 10 µM; 24 h.
With `COc1c2occc2c(OC)c2c(=O)cc(C)oc12` [khellin] the percent viability was 270%. `O=C1CC[C@@H](C(=O)Oc2ccc(O)cc2)N1` [pidobenzone] was tested, and the percent viability was 176%. In the case of `CNC[C@H](O)[C@@H](O)[C@H](O)[C@H](O)CO` [meglumine], the percent viability is reported as 116%. `O=C(OC1C[C@@H]2CC3C[C@H](C1)N2CC3=O)c1c[nH]c2ccccc12` (stereo not given in full) [Dolasteron] gave a percent viability of 77.6%. In the case of `C=CCNC(N)=S` [allylthiourea], the percent viability is reported as 212%. Molecule `CCn1cc(C(=O)O)c(=O)c2cnc(N3CCNCC3)nc21` [pipemidic acid] has a percent viability of 76%. Molecule `Cc1nc2ccccn2c(=O)c1CCN1CCC(C(=O)c2ccc(F)cc2)CC1` [pirenperone] has a percent viability of 124%. `CCn1cc(C(=O)O)c(=O)c2cc(F)c(N3CCN(C)CC3)cc21` [Pefloxacine mesylate dihydrate] was tested, and the percent viability was 244%. In the case of `CCN(CC)CCOC(=O)C(c1ccccc1)C1CCCCC1` (stereo not given) [drofenine], the percent viability is reported as 357%. `Cn1c(=O)c2nc[nH]c2n(C)c1=O` was tested, and the percent viability was 226%. Work on `CC(C)CCC[C@@H](C)[C@H]1CC(=O)C2=C3CC[C@H]4C[C@@H](O)CC[C@]4(C)[C@H]3CC[C@@]21C` [colestolone] yielded a percent viability of 358%. In the case of `CN1CCN(C2Cc3ccccc3Sc3ccc(Cl)cc32)CC1` (stereo not given) [clorotepine], the percent viability is reported as 190%. `COc1ccnc(C[S+]([O-])c2nc3cc(-n4cccc4)ccc3[nH]2)c1C` (stereo not given) [ilaprazole] showed a percent viability of 203%. In the case of `CCOC(=O)c1ccc(OC(=O)CCCCCNC(=N)N)cc1` [gabexate], the percent viability is reported as 191%. With `COc1cc2nc(N3CCN(C(=O)C4COc5ccccc5O4)CC3)nc(N)c2cc1OC` (stereo not given) [doxazosin] the percent viability was 183% and 326%. `Clc1cccc(C(c2ccc3[nH]cnc3c2)n2ccnc2)c1` (stereo not given) [liarozole] showed a percent viability of 153%. Work on `CC(C)(Oc1ccc(Cl)cc1)C(=O)OCCOC(=O)c1cccnc1` [etofibrate] yielded a percent viability of 268%. `CC(=O)N(CC(O)CO)c1c(I)c(C(=O)NCC(O)CO)c(I)c(C(=O)NCC(O)CO)c1I` (stereo not given) showed a percent viability of 180%. In the case of `NCc1ccccc1CC(=O)N[C@@H]1C(=O)N2C(C(=O)O)=C(CSc3nnnn3CC(=O)O)CS[C@H]12` [Ceforanide], the percent viability is reported as 264%. `CN1CCCN=C1/C=C/c1cccs1` [Pyrantel Pamoate] gave a percent viability of 210%. With `COc1ccc(C(=O)NCc2cccnc2)cc1C(=O)NCc1cccnc1` [Picotamide] the percent viability was 167%. Molecule `CC1(C)S[C@@H]2[C@H](NC(=O)[C@H](NC(=O)N3CCNC3=O)c3ccccc3)C(=O)N2[C@H]1C(=O)O` has a percent viability of 314%. With `O=C(OCCN1CCN(c2cccc(C(F)(F)F)c2)CC1)c1ccccc1Nc1ccnc2cc(C(F)(F)F)ccc12` [antrafenine] the percent viability was 292%. Molecule `O=C(O)Cc1sc(-c2ccccc2)nc1-c1ccc(Cl)cc1` [fentiazac] has a percent viability of 246%. With `Cc1ccc(-c2cc(C(F)(F)F)nn2-c2ccc(S(N)(=O)=O)cc2)cc1` [celecoxib] the percent viability was 202% and 360%. For `COc1cc2nccc(Oc3ccc(NC(=O)NC4CC4)c(Cl)c3)c2cc1C(N)=O` [Lenvatinib], the percent viability was 337%. In the case of `C=C[C@H]1CN2CC[C@H]1C[C@H]2[C@H](O)c1ccnc2ccc(OC)cc12`, the percent viability is reported as 200% and 189%. `O=P(O)(O)C(O)(Cc1cccnc1)P(=O)(O)O` [risedronic acid] was tested, and the percent viability was 159% and 231%. For `O=C(O)CN1C[C@@H](c2cccs2)SC[C@H](N[C@@H](CCc2ccccc2)C(=O)O)C1=O` [temocaprilat], the percent viability was 287%. With `CO/N=C(\C(=O)N[C@@H]1C(=O)N2C(C(=O)O)=C(COC(C)=O)CS[C@H]12)c1ccco1` [cefuracetime] the percent viability was 149%. Work on `CC(O)C(=O)O.N` (stereo not given) yielded a percent viability of 156%. `O=C1/C(=C/c2cccs2)CCC/C1=C\c1cccs1` [tenylidone] gave a percent viability of 102%. With `CCCCCCCCCCCC[N+](C)(C)CC(=O)OCC` [laurcetium iodide] the percent viability was 138%. For `Cn1cc([S+](C)[O-])c(=O)c2ccc(F)cc21` (stereo not given) [flosequinan], the percent viability was 174%. In the case of `CCCCC(C)(O)C/C=C/[C@H]1[C@H](O)CC(=O)[C@@H]1CCCCCCC(=O)OC` (mixture of isomers) [Misoprostol], the percent viability is reported as 206%. `CO/N=C(\C(=O)N[C@@H]1C(=O)N2C(C(=O)O)=C(C)CS[C@H]12)c1csc(N)n1` [cefetamet] was tested, and the percent viability was 73.3%. For `NS(=O)(=O)c1cc(C2(O)NC(=O)c3ccccc32)ccc1Cl` (stereo not given) [chlortalidone], the percent viability was 68.4%. Work on `CCC(=O)O[C@]1(C(=O)SCF)[C@H](C)C[C@H]2[C@@H]3C[C@H](F)C4=CC(=O)C=C[C@]4(C)[C@@]3(F)[C@@H](O)C[C@@]21C` yielded a percent viability of 157%. Work on `CN1C(CSCC(F)(F)F)Nc2cc(Cl)c(S(N)(=O)=O)cc2S1(=O)=O` (stereo not given) [polythiazide] yielded a percent viability of 265%. Work on `O=C(O)c1ccc[n+]([O-])c1` [oxiniacic acid] yielded a percent viability of 74.2%.

From the supplement of paper PMC8256030
